# Source: PubChem BioAssay AID330 (DTP/NCI, 2004)
# The list does not hold the whole screen: it covers a few groups of compounds. Not every dose and run of a compound is shown. T/C gives the treated animals as a percentage of the vehicle group. Some doses have a count of surviving animals in place of a T/C: the source files T/C as zero there, which appears to mark a toxic dose or a test without result, not a measured value. Some survivor counts are full or nearly so, which does not show that the dose was tolerated: survival well below the control is almost never listed, so the zero probably covers shortened survival too. Survivors were counted at the toxicity check, usually on the fifth day, unless a day is given; later deaths do not show. Schedule codes are those of the source, read here as Q, the interval in days (D) or hours (H), X, the number of doses. For survival time, this PubChem deposit counts one and a half times the control or more as active, and values a quarter to a half above the control carry no call in these data; other NCI protocols may use other cut-offs. Signs of the kind (2×) count equal records among those shown. Some doses were run more than once; the values are given in rising order. Some entries show no survivor count and are marked so; the dose need not have been tolerated. Some T/C values carry the count of animals alive at the toxicity check (mostly the fifth day); without a count or a note in brackets, all were alive then.
# Test system: P388 leukemia ip, CD2F1 mice, survival T/C
# Test: NCI In Vivo Anticancer Drug Screen. Data for tumor model P388 Leukemia (intraperitoneal) in CD2F1 (CDF1) mice
# Settings: T/C endpoint: median survival time, higher T/C = longer survival
# [1] = dose: 50.0 mg/kg/injection, schedule: Q01DX009 (ip), vehicle: saline
# [2] = dose: 100.0 mg/kg/injection, schedule: Q01DX009 (ip), vehicle: saline
# [3] = dose: 200.0 mg/kg/injection, schedule: Q01DX009 (ip), vehicle: saline
# [4] = dose: 6.25 mg/kg/injection, schedule: Q01DX009 (ip), vehicle: saline
# [5] = dose: 12.5 mg/kg/injection, schedule: Q01DX009 (ip), vehicle: saline
# [6] = dose: 25.0 mg/kg/injection, schedule: Q01DX009 (ip), vehicle: saline
# [7] = dose: 25.0 mg/kg/injection, schedule: Q01DX005 (ip), vehicle: saline with Tween-80
# [8] = dose: 50.0 mg/kg/injection, schedule: Q01DX005 (ip), vehicle: saline with Tween-80
# [9] = dose: 100.0 mg/kg/injection, schedule: Q01DX005 (ip), vehicle: saline with Tween-80
# [10] = dose: 12.5 mg/kg/injection, schedule: Q01DX009 (ip), vehicle: saline with Tween-80
# [11] = dose: 25.0 mg/kg/injection, schedule: Q01DX009 (ip), vehicle: saline with Tween-80
# [12] = dose: 50.0 mg/kg/injection, schedule: Q01DX009 (ip), vehicle: saline with Tween-80
# [13] = dose: 100.0 mg/kg/injection, schedule: Q01DX009 (ip), vehicle: saline with Tween-80
# [14] = dose: 200.0 mg/kg/injection, schedule: Q01DX009 (ip), vehicle: saline with Tween-80
# [15] = dose: 6.25 mg/kg/injection, schedule: Q01DX009 (ip), vehicle: saline with Tween-80
# [16] = dose: 50.0 mg/kg/injection, schedule: Q01DX009 (ip), vehicle: Klucel (hydroxypropylcellulose) (HPC)
# [17] = dose: 100.0 mg/kg/injection, schedule: Q01DX009 (ip), vehicle: Klucel (hydroxypropylcellulose) (HPC)
# [18] = dose: 200.0 mg/kg/injection, schedule: Q01DX009 (ip), vehicle: Klucel (hydroxypropylcellulose) (HPC)
# [19] = dose: 50.0 mg/kg/injection, schedule: Q01DX005 (ip), vehicle: Klucel (hydroxypropylcellulose) (HPC)
# [20] = dose: 100.0 mg/kg/injection, schedule: Q01DX005 (ip), vehicle: Klucel (hydroxypropylcellulose) (HPC)
# [21] = dose: 200.0 mg/kg/injection, schedule: Q01DX005 (ip), vehicle: Klucel (hydroxypropylcellulose) (HPC)
structure (smiles),measurement,setting,value
CCN(CC)CC[CH2][Sb]([CH3])([CH3])([Br])[Br].O=[N+]([O-])c1cc([N+](=O)[O-])c(O)c([N+](=O)[O-])c1,T/C,[1],96 % of control [survivor count not shown]
same,T/C,[2],102 % of control [survivor count not shown]
same,T/C,[3],93 % of control [survivor count not shown]
CC1CN1P(=O)(Nc1ccccn1)N1CC1C (stereo not given),T/C,[4],122 % of control
same,T/C,[5],122 % of control
same,T/C,"dose: 12.5 mg/kg/injection, schedule: Q01DX009 (ip), vehicle: suspension in saline",113 % of control [5 of 6 alive]
same,T/C,[6],114 % of control [5 of 6 alive]
same,T/C,"dose: 25.0 mg/kg/injection, schedule: Q01DX009 (ip), vehicle: suspension in saline",134 % of control
same,T/C,[1],122 % of control
same,T/C,"dose: 50.0 mg/kg/injection, schedule: Q01DX009 (ip), vehicle: suspension in saline",153 % of control
same,T/C,"dose: 100.0 mg/kg/injection, schedule: Q01DX009 (ip), vehicle: suspension in saline",94 % of control
CCO/C=C/P(=O)(NC(=O)NC1OC(COC(=O)c2ccccc2)C(OC(=O)c2ccccc2)C1OC(=O)c1ccccc1)NC(=O)OCc1ccccc1 (stereo not given),T/C,[7],100 % of control
same,T/C,[8],103 % of control
same,T/C,[9],94 % of control
Cc1cc([N+](=O)[O-])cn1[N+](=O)[O-],T/C,[10],92 % of control
same,T/C,[11],98 % of control
same,T/C,[12],109 and 109 % of control [4 of 6 alive]
same,survivor count,[13],0 of 6
same,survivor count,[14],0 of 6
CC(C)OP(C)(=O)O.[U],T/C,[15],108 % of control [survivor count not shown]
same,T/C,[10],100 % of control [survivor count not shown]
[N-]=[N+]=NC(N)=O,T/C,[4],114 % of control
same,T/C,[5],112 % of control
same,survivor count,[6],1 of 6
same,survivor count,[1],0 of 6
same,survivor count,[2],0 of 6
same,survivor count,[3],0 of 6
CC(Cl)CN(CC(C)Cl)C(=O)OCC(N)C(=O)O (stereo not given),T/C,[5],100 % of control
same,T/C,[6],95 % of control
same,T/C,[1],104 % of control
same,T/C,[2],100 % of control
same,T/C,[3],95 % of control
COP(C)(=O)O.[Gd],T/C,"dose: 50.0 mg/kg/injection, schedule: Q04DX003 (ip), vehicle: saline",102 % of control [survivor count not shown]
same,T/C,"dose: 100.0 mg/kg/injection, schedule: Q04DX003 (ip), vehicle: saline",96 % of control [survivor count not shown]
same,T/C,"dose: 200.0 mg/kg/injection, schedule: Q04DX003 (ip), vehicle: saline",95 % of control [survivor count not shown]
CN1P(F)(F)(F)N(CCl)P1(F)(F)F,T/C,"dose: 6.25 mg/kg/injection, schedule: Q01DX005 (ip), vehicle: saline",101 % of control
same,T/C,"dose: 12.5 mg/kg/injection, schedule: Q01DX005 (ip), vehicle: saline",97 % of control
same,T/C,"dose: 25.0 mg/kg/injection, schedule: Q01DX005 (ip), vehicle: saline",104 % of control
same,survivor count,"dose: 50.0 mg/kg/injection, schedule: Q01DX005 (ip), vehicle: saline",0 of 5
same,survivor count,"dose: 100.0 mg/kg/injection, schedule: Q01DX005 (ip), vehicle: saline",0 of 5
same,survivor count,"dose: 200.0 mg/kg/injection, schedule: Q01DX005 (ip), vehicle: saline",0 of 5
O=P1(c2ccccc2)Nc2ncnc(Cl)c2N1 (stereo not given),T/C,[16],101 % of control
same,T/C,[17],100 % of control
same,T/C,[18],107 % of control
COc1ccccc1N1CC=C(c2ccccc2)OP1(=O)Cl (stereo not given),T/C,"dose: 25.0 mg/kg/injection, schedule: Q01DX005 (ip), vehicle: Klucel (hydroxypropylcellulose) (HPC)",112 % of control
same,T/C,[19],102 and 107 % of control
same,T/C,[20],107 and 125 % of control
same,T/C,[21],122 and 126 % of control
S=P(Cl)(Cl)Oc1ccccc1,T/C,"dose: 6.25 mg/kg/injection, schedule: Q04DX003 (ip), vehicle: saline with Tween-80",100 % of control
same,T/C,"dose: 12.5 mg/kg/injection, schedule: Q04DX003 (ip), vehicle: saline with Tween-80",100 % of control
same,T/C,"dose: 25.0 mg/kg/injection, schedule: Q04DX003 (ip), vehicle: saline with Tween-80",90 % of control
CC(C)OC(=O)N1N=C(OC(C)C)OP12=NC(c1ccccc1)=NN2C (stereo not given),T/C,[19],102 % of control
same,T/C,[20],102 % of control
same,T/C,[21],102 % of control
n1nc(-c2nn[nH]n2)n[nH]1,T/C,[15],99 % of control
same,T/C,[10],96 % of control
same,survivor count,[11],6 of 6
same,survivor count,[12],6 of 6
same,T/C,[13],88 % of control [5 of 6 alive]
CC(C)OP(C)(=O)OC(C)C.[Cl][Ta]([Cl])([Cl])([Cl])[Cl],T/C,"dose: 100.0 mg/kg/injection, schedule: Q04DX003 (ip), vehicle: Klucel (hydroxypropylcellulose) (HPC)",108 % of control [survivor count not shown]
same,T/C,"dose: 200.0 mg/kg/injection, schedule: Q04DX003 (ip), vehicle: Klucel (hydroxypropylcellulose) (HPC)",108 % of control [survivor count not shown]
same,T/C,"dose: 400.0 mg/kg/injection, schedule: Q04DX003 (ip), vehicle: Klucel (hydroxypropylcellulose) (HPC)",97 % of control [survivor count not shown]
NC1=NC(c2ccccc2[N+](=O)[O-])P(=O)(Nc2ncccn2)S1 (stereo not given),T/C,"dose: 60.0 mg/kg/injection, schedule: Q01DX005 (ip), vehicle: saline with Tween-80",109 % of control
same,T/C,"dose: 120.0 mg/kg/injection, schedule: Q01DX005 (ip), vehicle: saline with Tween-80",109 % of control
same,T/C,"dose: 240.0 mg/kg/injection, schedule: Q01DX005 (ip), vehicle: saline with Tween-80",106 % of control
Cc1ccc2cc(N(CCCl)CCCl)ccc2c1,survivor count,[16],6 of 6
same,survivor count,[17],6 of 6
same,survivor count,[18],6 of 6
O=P1(Cl)OC(c2ccc(Cl)cc2Cl)=CCN1c1ccccc1 (stereo not given),T/C,[7],107 % of control
same,T/C,[8],106 % of control
same,T/C,[9],104 % of control
ClCC[N+]1(CCCl)CCCO1,T/C,[4],159 % of control
same,T/C,"dose: 11.0 mg/kg/injection, schedule: Q04DX003 (ip), vehicle: saline",154 % of control
same,T/C,[5],100 % of control
same,T/C,"dose: 16.5 mg/kg/injection, schedule: Q04DX003 (ip), vehicle: saline",168 % of control
same,T/C,[6],90 % of control
same,T/C,"dose: 25.0 mg/kg/injection, schedule: Q04DX003 (ip), vehicle: saline",190 % of control
same,T/C,"dose: 37.5 mg/kg/injection, schedule: Q04DX003 (ip), vehicle: saline",86 % of control
ClC(CBr)CSC(Cl)(Cl)SC1CCCCC1 (stereo not given),T/C,[11],100 and 107 % of control
same,T/C,[12],97 and 103 % of control
same,T/C,[1],88 % of control
same,T/C,[13],99 and 106 % of control
same,T/C,[2],99 % of control
same,T/C,[14],106 % of control (2×)
same,T/C,[3],142 % of control [5 of 6 alive]
